{"source": "PubChem BioAssay AID434955", "about": "(Southern Research Specialized Biocontainment Screening …, 2010)", "note": "The list shows a part of the results.", "data": [{"test": "beta-lactam sensitization of Mtb H37Rv, H37Rv (AID 434955);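 further: growth measured after seven days incubation then overnight dye step; 0% = bacteria only wells and 100% = bacteria with antibiotic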", "conditions": "M. tuberculosis H37Rv growth with meropenem, percent inhibition; measured here: primary screen without meropenem; at 25 µM", "units": {"inhibition": "%"}, "values": [{"smiles": "Nc1ccc([As](=O)(O)c2ccc(N)cc2)cc1", "inhibition": 1.59}, {"smiles": "Nc1ccc([As](=O)(O)c2ccc([N+](=O)[O-])cc2)cc1", "inhibition": 4.13}, {"smiles": "O=[As](O)(c1ccc(O)cc1)c1ccccc1O", "inhibition": 4.69}, {"smiles": "CCOC(=O)Nc1ccc([As](=O)(O)O)c(O)c1", "inhibition": 8.63}]}]}
